Measured values: doi:10.1101/2021.02.05.430008
These are yes or no findings as the source states them, for the method shown. In cells and extracts the contact can be indirect. Some results given as binding are weak or reduced against the parent protein; the word gives no strength.

The chains behind the UniProt entries cited, without tags or fusion partners.
UniProt Q9H1Y0: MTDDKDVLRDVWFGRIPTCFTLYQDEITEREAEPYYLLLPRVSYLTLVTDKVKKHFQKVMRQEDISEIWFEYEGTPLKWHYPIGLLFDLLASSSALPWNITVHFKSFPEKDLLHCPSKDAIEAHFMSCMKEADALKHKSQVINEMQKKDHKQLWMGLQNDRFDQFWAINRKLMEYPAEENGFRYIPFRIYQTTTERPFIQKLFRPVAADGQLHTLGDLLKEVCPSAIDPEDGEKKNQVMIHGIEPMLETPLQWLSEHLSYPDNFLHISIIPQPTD
UniProt O94817: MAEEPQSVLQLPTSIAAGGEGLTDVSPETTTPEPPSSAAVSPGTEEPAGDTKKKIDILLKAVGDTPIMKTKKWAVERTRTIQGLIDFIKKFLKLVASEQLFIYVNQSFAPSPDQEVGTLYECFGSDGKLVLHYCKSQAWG
UniProt Q96KQ7: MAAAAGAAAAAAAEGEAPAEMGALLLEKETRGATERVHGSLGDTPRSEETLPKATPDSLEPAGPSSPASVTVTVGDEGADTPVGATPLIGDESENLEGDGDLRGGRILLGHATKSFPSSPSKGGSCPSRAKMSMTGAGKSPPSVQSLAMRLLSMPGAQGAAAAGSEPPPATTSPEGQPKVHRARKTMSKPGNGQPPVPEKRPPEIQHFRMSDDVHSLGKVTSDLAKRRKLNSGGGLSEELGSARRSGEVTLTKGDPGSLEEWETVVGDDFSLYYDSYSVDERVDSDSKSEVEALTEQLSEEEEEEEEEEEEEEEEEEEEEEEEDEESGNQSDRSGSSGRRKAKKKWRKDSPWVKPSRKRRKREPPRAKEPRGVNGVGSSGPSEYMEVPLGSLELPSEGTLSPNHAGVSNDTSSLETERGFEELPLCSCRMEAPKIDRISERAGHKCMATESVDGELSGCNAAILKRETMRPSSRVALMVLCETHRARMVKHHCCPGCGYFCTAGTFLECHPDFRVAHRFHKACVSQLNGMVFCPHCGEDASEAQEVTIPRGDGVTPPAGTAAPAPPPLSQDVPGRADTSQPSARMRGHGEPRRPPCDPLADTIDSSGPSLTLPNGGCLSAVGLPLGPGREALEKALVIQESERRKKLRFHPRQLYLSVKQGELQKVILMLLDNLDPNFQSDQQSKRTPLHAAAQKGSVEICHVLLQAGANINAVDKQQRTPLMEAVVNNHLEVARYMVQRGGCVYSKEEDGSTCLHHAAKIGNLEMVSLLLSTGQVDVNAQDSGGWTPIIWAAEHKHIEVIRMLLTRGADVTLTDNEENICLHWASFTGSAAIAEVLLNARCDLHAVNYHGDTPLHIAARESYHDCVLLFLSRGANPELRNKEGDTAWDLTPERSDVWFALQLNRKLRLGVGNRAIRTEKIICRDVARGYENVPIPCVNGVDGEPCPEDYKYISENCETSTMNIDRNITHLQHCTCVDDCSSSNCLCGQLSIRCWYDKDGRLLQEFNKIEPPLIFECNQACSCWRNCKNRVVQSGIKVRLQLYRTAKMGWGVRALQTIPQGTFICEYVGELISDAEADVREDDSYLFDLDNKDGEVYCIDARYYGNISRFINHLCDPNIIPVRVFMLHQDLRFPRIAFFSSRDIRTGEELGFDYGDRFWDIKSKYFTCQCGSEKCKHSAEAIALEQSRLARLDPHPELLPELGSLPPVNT

B1: JMJD2C (enzyme, UniProt Q9H3R0 1-1056)
chain: MEVAEVESPLNPSCKIMTFRPSMEEFREFNKYLAYMESKGAHRAGLAKVIPPKEWKPRQCYDDIDNLLIPAPIQQMVTGQSGLFTQYNIQKKAMTVKEFRQLANSGKYCTPRYLDYEDLERKYWKNLTFVAPIYGADINGSIYDEGVDEWNIARLNTVLDVVEEECGISIEGVNTPYLYFGMWKTTFAWHTEDMDLYSINYLHFGEPKSWYAIPPEHGKRLERLAQGFFPSSSQGCDAFLRHKMTLISPSVLKKYGIPFDKITQEAGEFMITFPYGYHAGFNHGFNCAESTNFATVRWIDYGKVAKLCTCRKDMVKISMDIFVRKFQPDRYQLWKQGKDIYTIDHTKPTPASTPEVKAWLQRRRKVRKASRSFQCARSTSKRPKADEEEEVSDEVDGAEVPNPDSVTDDLKVSEKSEAAVKLRNTEASSEEESSASRMQVEQNLSDHIKLSGNSCLSTSVTEDIKTEDDKAYAYRSVPSISSEADDSIPLSSGYEKPEKSDPSELSWPKSPESCSSVAESNGVLTEGEESDVESHGNGLEPGEIPAVPSGERNSFKVPSIAEGENKTSKSWRHPLSRPPARSPMTLVKQQAPSDEELPEVLSIEEEVEETESWAKPLIHLWQTKSPNFAAEQEYNATVARMKPHCAICTLLMPYHKPDSSNEENDARWETKLDEVVTSEGKTKPLIPEMCFIYSEENIEYSPPNAFLEEDGTSLLISCAKCCVRVHASCYGIPSHEICDGWLCARCKRNAWTAECCLCNLRGGALKQTKNNKWAHVMCAVAVPEVRFTNVPERTQIDVGRIPLQRLKLKCIFCRHRVKRVSGACIQCSYGRCPASFHVTCAHAAGVLMEPDDWPYVVNITCFRHKVNPNVKSKACEKVISVGQTVITKHRNTRYYSCRVMAVTSQTFYEVMFDDGSFSRDTFPEDIVSRDCLKLGPPAEGEVVQVKWPDGKLYGAKYFGSNIAHMYQVEFEDGSQIAMKREDIYTLDEELPKRVKARFSTASDMRFEDTFYGADIIQGERKRQRVLSSRFKNEYVADPVYRTFLKSSFQKKCQKRQ

Assays:
[1] = molecular target: ATG5 (construct of the pull-downs, Fig. 3a and Supplementary Fig. 8a) (human) (UniProt Q9H1Y0); experiment: pull-down
[2] = molecular target: ATG12 (construct of the pull-downs, Fig. 3a and Supplementary Fig. 8a) (human) (UniProt O94817); experiment: pull-down
[3] = molecular target: endogenous ATG5 (human (endogenous in 293T)) (UniProt Q9H1Y0); experiment: co-IP
[4] = molecular target: endogenous ATG12 (human (endogenous in 293T)) (UniProt O94817); experiment: co-IP

| Molecule | binding [1] | binding [2] | binding [3] | binding [4] |
| --- | --- | --- | --- | --- |
| G9a (construct of the GST pull-down, Fig. 3a) (from UniProt Q96KQ7 1-1210) (enzyme) | binds | binds |  |  |
| endogenous G9a (from UniProt Q96KQ7 1-1210) (enzyme) |  |  | binds | binds |
| B1 | binds | binds |  |  |
